These are yes or no findings as the source states them, for the method shown. Binding seen in cells or lysates may run through a third protein. A yes stands for co-enrichment or nearness to the bait. Other partners may have been found. Tags and fused reporters may be left off the sequences shown.
Target: T1, FLAG-tagged SMCR8 (Smith-Magenis Syndrome Chromosome Region, Candidate 8) (UniProt Q8TEV9)
T1 sequence: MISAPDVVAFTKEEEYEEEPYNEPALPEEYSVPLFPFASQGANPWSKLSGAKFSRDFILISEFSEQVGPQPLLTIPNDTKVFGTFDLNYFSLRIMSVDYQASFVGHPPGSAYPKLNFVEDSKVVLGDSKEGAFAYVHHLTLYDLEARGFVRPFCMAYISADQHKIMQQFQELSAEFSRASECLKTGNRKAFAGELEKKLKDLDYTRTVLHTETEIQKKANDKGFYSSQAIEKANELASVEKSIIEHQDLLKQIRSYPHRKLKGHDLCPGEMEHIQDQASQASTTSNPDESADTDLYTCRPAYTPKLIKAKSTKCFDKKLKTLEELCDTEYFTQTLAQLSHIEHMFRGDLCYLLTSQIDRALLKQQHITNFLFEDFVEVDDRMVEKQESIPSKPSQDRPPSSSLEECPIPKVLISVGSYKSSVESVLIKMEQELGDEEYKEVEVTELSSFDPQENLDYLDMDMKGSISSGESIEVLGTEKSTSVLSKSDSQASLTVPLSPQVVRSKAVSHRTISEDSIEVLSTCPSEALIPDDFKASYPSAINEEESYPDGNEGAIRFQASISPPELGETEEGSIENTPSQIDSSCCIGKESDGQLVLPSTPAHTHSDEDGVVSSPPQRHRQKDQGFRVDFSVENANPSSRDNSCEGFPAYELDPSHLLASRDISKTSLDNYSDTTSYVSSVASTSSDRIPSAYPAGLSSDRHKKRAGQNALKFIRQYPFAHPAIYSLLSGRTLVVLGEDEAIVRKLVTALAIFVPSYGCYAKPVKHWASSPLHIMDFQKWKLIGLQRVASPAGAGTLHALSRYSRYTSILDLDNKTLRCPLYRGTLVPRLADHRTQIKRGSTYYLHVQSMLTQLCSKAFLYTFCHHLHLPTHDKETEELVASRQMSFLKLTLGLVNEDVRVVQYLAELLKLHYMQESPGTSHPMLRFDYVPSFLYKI
Test: affinity purification with mass spectrometry; FL-SMCR8, C9orf72-FL or empty vector transfected in HEK 293T; α-FLAG agarose IP from whole cell lysates with or without RNase; LC-MS/MS; hits with three or more spectra and not detected in vector only control

Chains of the proteins cited; added tags and fusions are not shown.
UniProt Q9UNE7: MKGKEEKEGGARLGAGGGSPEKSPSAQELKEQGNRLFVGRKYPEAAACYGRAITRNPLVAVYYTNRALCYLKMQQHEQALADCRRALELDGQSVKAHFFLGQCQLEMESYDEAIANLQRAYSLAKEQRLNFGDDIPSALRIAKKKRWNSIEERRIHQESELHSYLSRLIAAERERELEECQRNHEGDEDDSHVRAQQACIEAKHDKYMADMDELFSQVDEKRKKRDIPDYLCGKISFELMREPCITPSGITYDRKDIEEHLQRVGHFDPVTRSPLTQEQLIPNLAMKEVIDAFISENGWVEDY
UniProt Q96N67: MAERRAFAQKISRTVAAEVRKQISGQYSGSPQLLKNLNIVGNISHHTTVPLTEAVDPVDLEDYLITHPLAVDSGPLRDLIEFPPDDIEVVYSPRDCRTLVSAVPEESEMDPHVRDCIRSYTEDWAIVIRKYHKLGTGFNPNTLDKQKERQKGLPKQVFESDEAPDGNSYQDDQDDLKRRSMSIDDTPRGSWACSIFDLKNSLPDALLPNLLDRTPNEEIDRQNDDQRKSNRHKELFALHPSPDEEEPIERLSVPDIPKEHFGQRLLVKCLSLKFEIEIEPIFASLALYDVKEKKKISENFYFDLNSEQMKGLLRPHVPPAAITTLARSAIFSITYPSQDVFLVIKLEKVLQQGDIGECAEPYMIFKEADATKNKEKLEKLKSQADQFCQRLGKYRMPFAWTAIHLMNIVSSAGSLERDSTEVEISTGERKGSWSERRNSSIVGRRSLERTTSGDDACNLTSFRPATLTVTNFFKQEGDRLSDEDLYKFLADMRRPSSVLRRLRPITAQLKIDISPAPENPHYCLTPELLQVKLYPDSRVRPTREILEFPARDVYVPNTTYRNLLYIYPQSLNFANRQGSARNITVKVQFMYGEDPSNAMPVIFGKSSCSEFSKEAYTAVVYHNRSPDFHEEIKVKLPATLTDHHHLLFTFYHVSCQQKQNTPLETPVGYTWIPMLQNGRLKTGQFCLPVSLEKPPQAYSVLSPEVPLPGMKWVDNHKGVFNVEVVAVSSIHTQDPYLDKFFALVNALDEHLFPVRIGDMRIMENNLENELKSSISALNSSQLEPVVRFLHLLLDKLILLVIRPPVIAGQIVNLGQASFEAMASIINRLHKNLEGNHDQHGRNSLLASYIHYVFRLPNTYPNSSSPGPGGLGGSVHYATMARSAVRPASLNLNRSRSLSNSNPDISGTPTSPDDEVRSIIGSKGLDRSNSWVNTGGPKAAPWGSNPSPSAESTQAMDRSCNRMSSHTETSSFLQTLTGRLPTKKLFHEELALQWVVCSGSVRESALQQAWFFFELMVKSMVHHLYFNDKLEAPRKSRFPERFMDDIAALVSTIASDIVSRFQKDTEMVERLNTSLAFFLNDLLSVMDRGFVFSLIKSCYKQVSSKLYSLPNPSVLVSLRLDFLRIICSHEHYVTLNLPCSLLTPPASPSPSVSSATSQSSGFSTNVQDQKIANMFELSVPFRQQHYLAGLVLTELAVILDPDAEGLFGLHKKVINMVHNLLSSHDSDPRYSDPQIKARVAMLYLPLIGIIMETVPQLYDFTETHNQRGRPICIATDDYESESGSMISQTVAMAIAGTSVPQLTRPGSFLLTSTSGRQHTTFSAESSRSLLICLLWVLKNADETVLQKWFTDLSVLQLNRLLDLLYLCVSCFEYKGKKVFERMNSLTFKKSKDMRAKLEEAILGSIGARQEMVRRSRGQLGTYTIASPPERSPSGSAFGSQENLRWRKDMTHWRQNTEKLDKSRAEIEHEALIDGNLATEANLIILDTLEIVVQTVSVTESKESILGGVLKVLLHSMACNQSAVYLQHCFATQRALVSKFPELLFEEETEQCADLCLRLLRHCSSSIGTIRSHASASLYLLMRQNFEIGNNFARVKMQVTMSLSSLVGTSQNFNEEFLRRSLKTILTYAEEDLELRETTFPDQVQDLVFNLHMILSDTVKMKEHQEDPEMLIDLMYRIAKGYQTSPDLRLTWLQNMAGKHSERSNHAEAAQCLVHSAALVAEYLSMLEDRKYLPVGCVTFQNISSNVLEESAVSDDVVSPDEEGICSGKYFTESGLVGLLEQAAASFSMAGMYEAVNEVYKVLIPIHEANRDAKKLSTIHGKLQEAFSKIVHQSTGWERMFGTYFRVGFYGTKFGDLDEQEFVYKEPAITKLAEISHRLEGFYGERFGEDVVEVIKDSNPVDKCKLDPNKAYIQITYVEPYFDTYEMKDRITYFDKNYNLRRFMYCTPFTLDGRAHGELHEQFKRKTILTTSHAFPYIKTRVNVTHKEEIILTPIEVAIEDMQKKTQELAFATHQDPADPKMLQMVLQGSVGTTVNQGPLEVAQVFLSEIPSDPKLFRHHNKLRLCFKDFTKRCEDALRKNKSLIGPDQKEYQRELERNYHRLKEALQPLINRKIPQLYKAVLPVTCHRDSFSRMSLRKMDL
UniProt Q14671: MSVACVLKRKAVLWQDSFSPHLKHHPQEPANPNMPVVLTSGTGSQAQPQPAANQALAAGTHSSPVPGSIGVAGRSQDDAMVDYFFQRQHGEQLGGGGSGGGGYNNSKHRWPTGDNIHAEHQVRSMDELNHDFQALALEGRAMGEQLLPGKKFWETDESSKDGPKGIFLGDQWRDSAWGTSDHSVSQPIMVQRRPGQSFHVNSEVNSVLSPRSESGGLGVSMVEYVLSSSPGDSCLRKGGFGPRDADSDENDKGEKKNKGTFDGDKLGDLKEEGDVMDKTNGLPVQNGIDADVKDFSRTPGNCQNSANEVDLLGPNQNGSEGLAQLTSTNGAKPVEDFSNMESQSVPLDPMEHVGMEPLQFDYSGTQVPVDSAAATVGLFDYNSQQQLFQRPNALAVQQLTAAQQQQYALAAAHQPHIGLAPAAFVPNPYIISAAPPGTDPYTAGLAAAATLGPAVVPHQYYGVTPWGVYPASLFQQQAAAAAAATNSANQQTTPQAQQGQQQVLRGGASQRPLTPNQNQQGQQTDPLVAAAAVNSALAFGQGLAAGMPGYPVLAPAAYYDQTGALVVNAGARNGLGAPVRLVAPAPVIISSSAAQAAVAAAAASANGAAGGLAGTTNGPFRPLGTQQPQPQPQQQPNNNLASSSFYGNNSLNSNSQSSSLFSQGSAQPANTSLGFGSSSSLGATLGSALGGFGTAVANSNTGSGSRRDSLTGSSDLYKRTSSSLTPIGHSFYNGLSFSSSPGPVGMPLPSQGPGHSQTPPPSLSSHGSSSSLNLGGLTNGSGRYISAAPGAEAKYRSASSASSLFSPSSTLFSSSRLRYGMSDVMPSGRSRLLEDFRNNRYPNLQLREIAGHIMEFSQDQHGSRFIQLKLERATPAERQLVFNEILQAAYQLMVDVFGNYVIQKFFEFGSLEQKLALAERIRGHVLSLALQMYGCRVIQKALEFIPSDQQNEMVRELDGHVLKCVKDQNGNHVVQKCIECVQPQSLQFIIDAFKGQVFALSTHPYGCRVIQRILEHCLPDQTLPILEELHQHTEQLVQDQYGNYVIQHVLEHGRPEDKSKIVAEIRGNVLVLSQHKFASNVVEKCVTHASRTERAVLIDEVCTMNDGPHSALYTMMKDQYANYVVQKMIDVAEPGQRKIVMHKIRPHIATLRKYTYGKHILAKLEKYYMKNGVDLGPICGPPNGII
UniProt P25786: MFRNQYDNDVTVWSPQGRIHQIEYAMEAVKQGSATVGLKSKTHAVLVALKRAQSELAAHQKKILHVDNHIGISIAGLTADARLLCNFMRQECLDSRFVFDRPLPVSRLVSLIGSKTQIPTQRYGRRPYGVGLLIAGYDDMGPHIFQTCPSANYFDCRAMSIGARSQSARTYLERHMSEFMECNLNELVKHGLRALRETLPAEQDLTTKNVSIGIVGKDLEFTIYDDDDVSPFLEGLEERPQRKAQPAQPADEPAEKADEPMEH
UniProt P34932: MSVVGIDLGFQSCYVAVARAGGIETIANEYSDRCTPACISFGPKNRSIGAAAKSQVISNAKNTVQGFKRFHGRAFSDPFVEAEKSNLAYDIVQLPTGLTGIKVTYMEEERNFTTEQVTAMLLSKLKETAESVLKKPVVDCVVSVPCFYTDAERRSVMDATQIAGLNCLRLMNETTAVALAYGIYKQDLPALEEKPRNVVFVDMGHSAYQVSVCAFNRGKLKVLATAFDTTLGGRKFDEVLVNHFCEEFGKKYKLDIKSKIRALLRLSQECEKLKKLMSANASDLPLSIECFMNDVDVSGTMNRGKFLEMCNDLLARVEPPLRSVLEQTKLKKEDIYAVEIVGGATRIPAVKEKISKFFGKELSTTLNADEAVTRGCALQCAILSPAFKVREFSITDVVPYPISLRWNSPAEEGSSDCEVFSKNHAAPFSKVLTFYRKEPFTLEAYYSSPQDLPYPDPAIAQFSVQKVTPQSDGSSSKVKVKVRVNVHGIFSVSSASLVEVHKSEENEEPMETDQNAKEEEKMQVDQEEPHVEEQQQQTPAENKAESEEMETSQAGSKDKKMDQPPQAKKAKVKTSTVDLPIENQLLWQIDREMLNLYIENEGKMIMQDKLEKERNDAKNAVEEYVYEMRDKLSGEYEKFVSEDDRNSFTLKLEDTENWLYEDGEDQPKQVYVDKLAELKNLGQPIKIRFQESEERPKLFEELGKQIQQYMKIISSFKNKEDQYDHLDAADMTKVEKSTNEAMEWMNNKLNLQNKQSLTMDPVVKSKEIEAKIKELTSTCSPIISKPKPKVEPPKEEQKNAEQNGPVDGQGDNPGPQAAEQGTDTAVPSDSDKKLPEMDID
UniProt Q14203: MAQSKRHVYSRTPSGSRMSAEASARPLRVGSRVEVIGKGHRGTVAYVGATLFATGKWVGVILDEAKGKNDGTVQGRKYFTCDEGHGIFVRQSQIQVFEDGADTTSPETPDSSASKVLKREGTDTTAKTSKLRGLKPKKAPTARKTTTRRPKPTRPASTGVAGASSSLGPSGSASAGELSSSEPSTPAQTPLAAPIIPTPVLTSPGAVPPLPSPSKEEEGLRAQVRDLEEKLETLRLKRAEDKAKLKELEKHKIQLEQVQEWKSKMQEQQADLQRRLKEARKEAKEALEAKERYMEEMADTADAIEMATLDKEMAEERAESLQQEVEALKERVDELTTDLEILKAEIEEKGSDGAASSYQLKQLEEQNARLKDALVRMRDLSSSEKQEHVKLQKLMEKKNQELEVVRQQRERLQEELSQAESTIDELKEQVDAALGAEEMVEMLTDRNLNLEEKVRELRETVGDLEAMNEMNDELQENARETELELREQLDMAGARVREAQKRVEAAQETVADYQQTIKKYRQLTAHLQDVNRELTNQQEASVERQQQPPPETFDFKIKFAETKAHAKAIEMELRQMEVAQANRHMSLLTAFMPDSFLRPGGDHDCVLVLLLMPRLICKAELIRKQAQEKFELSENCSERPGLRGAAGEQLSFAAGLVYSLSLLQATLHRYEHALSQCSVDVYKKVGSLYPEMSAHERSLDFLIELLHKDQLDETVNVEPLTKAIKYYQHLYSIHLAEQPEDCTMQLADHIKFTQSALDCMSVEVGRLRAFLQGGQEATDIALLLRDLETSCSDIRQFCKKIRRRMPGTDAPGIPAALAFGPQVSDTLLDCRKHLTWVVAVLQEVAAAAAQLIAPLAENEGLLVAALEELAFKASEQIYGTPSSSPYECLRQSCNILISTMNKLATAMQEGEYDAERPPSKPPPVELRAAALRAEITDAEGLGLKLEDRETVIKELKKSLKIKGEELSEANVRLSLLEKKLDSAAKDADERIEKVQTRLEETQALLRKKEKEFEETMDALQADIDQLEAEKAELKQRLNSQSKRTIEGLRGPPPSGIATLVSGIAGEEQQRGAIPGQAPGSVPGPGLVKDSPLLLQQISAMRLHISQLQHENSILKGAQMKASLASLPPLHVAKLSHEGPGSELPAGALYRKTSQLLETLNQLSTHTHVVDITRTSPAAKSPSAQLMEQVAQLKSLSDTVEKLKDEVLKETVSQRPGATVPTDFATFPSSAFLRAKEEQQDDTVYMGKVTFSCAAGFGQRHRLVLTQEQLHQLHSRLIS
UniProt P28066: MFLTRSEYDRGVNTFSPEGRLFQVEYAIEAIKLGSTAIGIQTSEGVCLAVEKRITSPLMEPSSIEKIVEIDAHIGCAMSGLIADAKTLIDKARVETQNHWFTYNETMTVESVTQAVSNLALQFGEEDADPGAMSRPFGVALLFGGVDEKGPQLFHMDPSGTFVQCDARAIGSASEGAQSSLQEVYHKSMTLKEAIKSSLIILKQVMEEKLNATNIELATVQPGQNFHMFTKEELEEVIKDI
UniProt P12004: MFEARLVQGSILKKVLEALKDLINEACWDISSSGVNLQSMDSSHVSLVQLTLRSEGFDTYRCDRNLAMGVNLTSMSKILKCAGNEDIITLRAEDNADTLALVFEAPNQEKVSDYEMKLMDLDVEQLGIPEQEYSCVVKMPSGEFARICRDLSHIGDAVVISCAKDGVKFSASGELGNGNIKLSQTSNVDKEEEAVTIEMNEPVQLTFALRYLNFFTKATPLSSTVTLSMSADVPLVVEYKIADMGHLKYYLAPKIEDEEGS

“proteasome 26S subunit, non-ATPase 13 (from UniProt Q9UNM6 1-376)” was tested, and the binding was “binds”.

In the case of “DnaJ heat shock protein family (Hsp40) member B1 (from UniProt P25685 1-340)”, the binding is reported as “binds”.

With “proteasome subunit beta 2 (from UniProt P49721 1-201)” the binding was “binds”.

In the case of “eukaryotic translation initiation factor 3 subunit F (from UniProt O00303 1-357)”, the binding is reported as “binds”.

With “STIP1 homology and U-box containing protein 1 (from UniProt Q9UNE7 1-303)” the binding was “binds”.

For “GCN1, eIF2 alpha kinase activator homolog (from UniProt Q92616 1-2671)”, the binding was “binds”.

In the case of “RAD21 cohesin complex component (from UniProt O60216 1-631)”, the binding is reported as “binds”.

GATAD2B (from UniProt Q8WXI9 1-593) was tested, and the binding was “binds”.

In the case of “mutS homolog 6(MSH6) (from UniProt P52701 1-1360)”, the binding is reported as “binds”.

For SAMHD1 (from UniProt Q9Y3Z3 1-626), the binding was “binds”.

With “ubiquitin specific peptidase 7 (from UniProt Q93009 1-1102)” the binding was “binds”.

DOCK7 (from UniProt Q96N67 1-2140) was tested, and the binding was “binds”.

With “HECT, UBA and WWE domain containing 1, E3 ubiquitin protein ligase (from UniProt Q7Z6Z7 1-4374)” the binding was “binds”.

In the case of “coatomer protein complex subunit alpha (from UniProt P53621 1-1224)”, the binding is reported as “binds”.

CLTC (from UniProt Q00610 1-1675) was tested, and the binding was “binds”.

In the case of “BCL2 associated athanogene 2 (from UniProt O95816 1-211)”, the binding is reported as “binds”.

With “eukaryotic translation initiation factor 4A1 (from UniProt P60842 1-406)” the binding was “binds”.

With “BCL2 associated athanogene 3 (from UniProt O95817 1-575)” the binding was “binds”.

With SLC25A1 (from UniProt P53007 14-311) the binding was “binds”.

“ubiquitin specific peptidase 9, X-linked (from UniProt Q93008 1-2554)” was tested, and the binding was “binds”.

PUM1 (from UniProt Q14671 1-1186) was tested, and the binding was “binds”.

In the case of “proteasome subunit alpha 1 (from UniProt P25786 1-263)”, the binding is reported as “binds”.

For LMNA (from UniProt P02545 1-646), the binding was “binds”.

“major histocompatibility complex, class I, B (from UniProt P01889 25-362)” was tested, and the binding was “binds”.

“cyclin dependent kinase 5 (from UniProt Q00535 1-292)” was tested, and the binding was “binds”.

In the case of “polo like kinase 1 (from UniProt P53350 1-603)”, the binding is reported as “binds”.

With “proteasome subunit alpha 6 (from UniProt P60900 1-246)” the binding was “binds”.

“carbamoyl-phosphate synthetase 2, aspartate transcarbamylase, and dihydroorotase (from UniProt P27708 1-2225)” was tested, and the binding was “binds”.

With “proteasome 26S subunit, non-ATPase 3 (from UniProt O43242 1-534)” the binding was “binds”.

With “proteasome 26S subunit, non-ATPase 14 (from UniProt O00487 1-310)” the binding was “binds”.

In the case of “nucleoporin 205 (from UniProt Q92621 1-2012)”, the binding is reported as “binds”.

With “kelch like ECH associated protein 1 (from UniProt Q14145 1-624)” the binding was “binds”.

With WNK1 (from UniProt Q9H4A3 1-2382) the binding was “binds”.

With “dynein cytoplasmic 1 heavy chain 1 (from UniProt Q14204 1-4646)” the binding was “binds”.

With “tubulin beta 4A class IVa (from UniProt P04350 1-444)” the binding was “binds”.

“proteasome activator subunit 3 (from UniProt P61289 1-254)” was tested, and the binding was “binds”.

With “proteasome subunit alpha 3 (from UniProt P25788 1-255)” the binding was “binds”.

With “proteasome 26S Subunit, ATPase 5 (from UniProt P62195 1-406)” the binding was “binds”.

With “heat shock protein family A member 4 (from UniProt P34932 1-840)” the binding was “binds”.

With “proteasome 26S subunit, non-ATPase 12 (from UniProt O00232 1-456)” the binding was “binds”.

With “eukaryotic translation initiation factor 4 gamma 1 (from UniProt Q04637 1-1599)” the binding was “binds”.

In the case of “apoptosis inducing factor, mitochondria associated 1 (from UniProt O95831)”, the binding is reported as “binds”.

For “nucleoporin 153 (from UniProt P49790 1-1475)”, the binding was “binds”.

DCTN1 (from UniProt Q14203 1-1278) was tested, and the binding was “binds”.

With “structural maintenance of chromosomes 3 (from UniProt Q9UQE7 1-1217)” the binding was “binds”.

With “eukaryotic translation initiation factor 3 subunit E (from UniProt P60228 1-445)” the binding was “binds”.

For “proteasome subunit alpha 5 (from UniProt P28066 1-241)”, the binding was “binds”.

In the case of “proteasome 26S subunit, non-ATPase 6 (from UniProt Q15008 1-389)”, the binding is reported as “binds”.

In the case of NOP56 (from UniProt O00567 1-594), the binding is reported as “binds”.

“damage specific DNA binding protein 1 (from UniProt Q16531 1-1140)” was tested, and the binding was “binds”.

For “karyopherin subunit beta 1 (from UniProt Q14974 1-876)”, the binding was “binds”.

In the case of “tubulin beta 6 class V (from UniProt Q9BUF5 1-446)”, the binding is reported as “binds”.

In the case of “FMR1 autosomal homolog 2 (from UniProt P51116 1-673)”, the binding is reported as “binds”.

For “proliferating cell nuclear antigen (from UniProt P12004 1-261)”, the binding was “binds”.

With MTHFD1 (from UniProt P11586 1-935) the binding was “binds”.

In the case of “solute carrier family 3 member 2 (from UniProt P08195 1-529)”, the binding is reported as “binds”.

With “chromodomain helicase DNA binding protein 4 (from UniProt Q14839 1-1912)” the binding was “binds”.

With “TAR DNA binding protein 43, endogenous (from UniProt Q13148 1-414)” the binding was “binds”.

In the case of “tubulin beta 3 class III (from UniProt Q13509 1-450)”, the binding is reported as “binds”.

exportin 1 (from UniProt O14980 1-1071) was tested, and the binding was “binds”.

“dynein cytoplasmic 1 intermediate chain 2 (from UniProt Q13409 1-638)” was tested, and the binding was “binds”.

“BCL2 associated athanogene 6 (from UniProt P46379 1-1132)” was tested, and the binding was “binds”.

With “midasin AAA ATPase 1 (from UniProt Q9NU22 1-5596)” the binding was “binds”.

For “proteasome 26S subunit, ATPase 4 (from UniProt P43686 1-418)”, the binding was “binds”.

In the case of “cell division cycle 7 (from UniProt O00311 1-574)”, the binding is reported as “binds”.

“thioredoxin domain containing 5 (from UniProt Q8NBS9 33-432)” was tested, and the binding was “binds”.

“nucleoporin 210 (from UniProt Q8TEM1 27-1887)” was tested, and the binding was “binds”.

For “small ubiquitin-like modifier 3 (from UniProt P55854 1-92)”, the binding was “binds”.

In the case of HCFC1 (human (endogenous in HEK 293T)), the binding is reported as “binds”.

For “heat shock protein family B member 1 (from UniProt P04792 1-205)”, the binding was “binds”.

For “Sec61 translocon beta subunit (from UniProt P60468 1-96)”, the binding was “binds”.

“prefoldin subunit 2 (from UniProt Q9UHV9 1-154)” was tested, and the binding was “binds”.

“autophagy cargo receptor p62 (encoded by the SQSTM1 gene), endogenous (from UniProt Q13501 1-440)” was tested, and the binding was “binds”.

In the case of “ring finger protein 2, , E3 ubiquitin protein ligase (from UniProt Q99496 1-336)”, the binding is reported as “binds”.
